Drawing on patent US8058442B2 (Technion Research and Development Foundation Ltd., priority 2002, dated 2011), this text covers conjugation yield for three substances.

This series is described as follows: general procedure: Fmoc solid-phase peptide synthesis; Rink amide resin; PyBOP/NMM; DCC/HOBt when necessary. The settings on record: conjugation step.

For [Cys^8(HQ)]-Substance P, the conjugation yield was 75%.

As for [D-Cys^6(HQ-Pr)]GnRH, the conjugation yield is reported as 70%.

[L-Cys^5(HQ-Pr)]GnRH displayed a conjugation yield of 78%.
